Test results published in doi:10.1101/2025.08.18.670960.
Results are given in words; binding and its absence hold for the method and conditions named. Binding seen in cells or lysates may run through a third protein. Some results given as binding are weak or reduced against the parent protein; the word gives no strength. Tags and fused reporters may be left off the sequences shown.

T1: GFP-fused RIC-8 (C. elegans) (UniProt Q9GSX9)
T1 sequence: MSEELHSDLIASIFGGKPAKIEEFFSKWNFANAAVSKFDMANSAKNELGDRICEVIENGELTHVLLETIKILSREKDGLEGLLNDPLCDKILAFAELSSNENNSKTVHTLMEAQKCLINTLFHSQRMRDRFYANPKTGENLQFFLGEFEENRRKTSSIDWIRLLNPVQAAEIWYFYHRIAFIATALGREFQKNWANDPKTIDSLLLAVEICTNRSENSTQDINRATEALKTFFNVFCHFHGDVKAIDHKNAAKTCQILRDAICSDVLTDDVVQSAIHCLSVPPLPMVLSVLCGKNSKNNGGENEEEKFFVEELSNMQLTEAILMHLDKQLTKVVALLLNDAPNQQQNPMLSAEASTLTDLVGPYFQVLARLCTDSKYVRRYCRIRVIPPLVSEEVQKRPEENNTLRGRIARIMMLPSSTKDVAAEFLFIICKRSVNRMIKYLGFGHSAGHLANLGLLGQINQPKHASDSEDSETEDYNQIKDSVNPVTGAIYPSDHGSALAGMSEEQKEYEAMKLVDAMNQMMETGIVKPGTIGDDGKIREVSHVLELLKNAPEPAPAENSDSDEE


Molecular target: T1, GFP-fused RIC-8 (C. elegans)
Test: FRET or BRET; FRET-FLIM in vivo: RIC-8::GFP alone or with TagRFP-tagged ODR-3 in AWC neurons under the ceh-36Δ promoter; read-out is GFP lifetime

binding	Binder
binds	TagRFP-tagged ODR-3^WT (protein, UniProt Q18434 1-356) MGSCQSNENSEGNARNKEIEKQLNADKRAGSSIVKLLLLGAGECGKSTVLKQMQILHSNGFTEEEVNEKRAIVYNNTVSAMCTILRAMDGVLHLPLENGQKEAEKAIVMKVQENGEEGEALTEEVSKAIQSLWADPGVKKAFEMRSEYQLPDSAKYFLDNCQRISEPGYRPNDQDILYSRVATTGVVEVKFKIKELDFRVFDVGGQRSERRKWIHCFDNVESIIFITAISEYDQVLFEDETTNRMIESMQLFNSICNSTWFLSTAMILFMNKKDLFMEKIQRVNITTAFPDYEGGQNYEEAVSFIKQKFAELNLNPDKKTIYMHETCATDTNQVQLVISSVIDTIIQKNLQKAGMM
binds	TagRFP-tagged ODR-3^A328P (protein, UniProt Q18434 1-356) MGSCQSNENSEGNARNKEIEKQLNADKRAGSSIVKLLLLGAGECGKSTVLKQMQILHSNGFTEEEVNEKRAIVYNNTVSAMCTILRAMDGVLHLPLENGQKEAEKAIVMKVQENGEEGEALTEEVSKAIQSLWADPGVKKAFEMRSEYQLPDSAKYFLDNCQRISEPGYRPNDQDILYSRVATTGVVEVKFKIKELDFRVFDVGGQRSERRKWIHCFDNVESIIFITAISEYDQVLFEDETTNRMIESMQLFNSICNSTWFLSTAMILFMNKKDLFMEKIQRVNITTAFPDYEGGQNYEEAVSFIKQKFAELNLNPDKKTIYMHETCPTDTNQVQLVISSVIDTIIQKNLQKAGMM
